Drawing on PMC5799161, this text covers binding for two molecules.

Protein sequences, listed by entry. Tags and fused reporters are not part of them.
UniProt P62993: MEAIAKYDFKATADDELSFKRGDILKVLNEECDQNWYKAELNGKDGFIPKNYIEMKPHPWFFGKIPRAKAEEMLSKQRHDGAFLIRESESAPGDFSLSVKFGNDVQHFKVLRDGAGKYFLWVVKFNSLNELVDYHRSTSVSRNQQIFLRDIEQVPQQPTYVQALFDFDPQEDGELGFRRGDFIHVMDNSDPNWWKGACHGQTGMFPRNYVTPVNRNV
UniProt P42224: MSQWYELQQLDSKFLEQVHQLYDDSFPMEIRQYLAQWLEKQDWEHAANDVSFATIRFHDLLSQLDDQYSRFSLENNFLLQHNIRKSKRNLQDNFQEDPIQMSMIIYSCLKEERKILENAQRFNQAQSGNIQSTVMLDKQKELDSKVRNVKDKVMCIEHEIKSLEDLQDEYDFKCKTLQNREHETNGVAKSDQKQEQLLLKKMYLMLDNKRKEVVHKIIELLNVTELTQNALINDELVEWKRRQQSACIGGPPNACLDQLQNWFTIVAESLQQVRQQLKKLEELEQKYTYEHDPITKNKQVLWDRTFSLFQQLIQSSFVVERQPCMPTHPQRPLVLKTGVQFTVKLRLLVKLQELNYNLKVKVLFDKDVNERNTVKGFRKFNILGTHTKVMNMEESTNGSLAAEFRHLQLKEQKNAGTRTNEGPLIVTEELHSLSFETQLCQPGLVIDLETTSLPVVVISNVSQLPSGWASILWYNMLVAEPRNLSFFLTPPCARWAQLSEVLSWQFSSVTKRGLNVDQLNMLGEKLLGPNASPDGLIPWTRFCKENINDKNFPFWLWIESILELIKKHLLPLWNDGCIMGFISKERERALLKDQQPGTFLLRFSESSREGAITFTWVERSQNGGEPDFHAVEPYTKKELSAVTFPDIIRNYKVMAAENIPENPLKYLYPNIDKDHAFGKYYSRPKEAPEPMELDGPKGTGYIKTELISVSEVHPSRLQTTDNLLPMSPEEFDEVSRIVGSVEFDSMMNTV

Assay [1] deals with biotinylated Grb2 (SH2-containing protein of the AlphaScreen) (UniProt P62993). Kind of assay: AlphaScreen or HTRF; biotinylated SH2-containing protein (75 nM STAT3, 30 nM STAT1 or 6 nM Grb2) on streptavidin-coated donor beads, FITC-pTyr peptide (0.05 nM for STAT3, 0.72 nM for STAT1, 0.18 nM for Grb2) on anti-FITC acceptor beads; 10 mM HEPES-NaOH pH 7.4, 50 mM NaCl, 1 mM EDTA, 0.1% NP-40 …; protein incubated with the test compound (MNS) for 15 min, then with the peptide for 90 min.

Assay [2] concerns the target biotinylated STAT1 (SH2-containing protein of the AlphaScreen) (UniProt P42224). The description is as above.

Results are given in words; binding and its absence hold for the method and conditions named. Some entries that bind do so weakly or less than the wild type.

Regarding PSYVNVQN (phosphotyrosine (pY) at position 3 of the peptide; FITC on the N-terminus) [FITC-PSpYVNVQN], the binding entry in assay [1] is “binds”.

For GYDKPHVL (phosphotyrosine (pY) at position 2 of the peptide; FITC on the N-terminus) [FITC-GpYDKPHVL], the binding result in assay [2] is “binds”.
